These are yes or no findings as the source states them, for the method shown. Some results given as binding are weak or reduced against the parent protein; the word gives no strength.
Molecular target: EGFR (Epidermal Growth Factor Receptor) (human) (UniProt P00533)
Assay: phage ELISA on coated EGFR

Chains of the proteins cited; added tags and fusions are not shown. Lines headed by an entry give the natural chain unless they say otherwise; changes in a name come on top. A line that says so, or that is headed by a name, gives the form on record, which may keep a tag or linker.
clone 18 of the 1OZJ scaffold (P84022, form named): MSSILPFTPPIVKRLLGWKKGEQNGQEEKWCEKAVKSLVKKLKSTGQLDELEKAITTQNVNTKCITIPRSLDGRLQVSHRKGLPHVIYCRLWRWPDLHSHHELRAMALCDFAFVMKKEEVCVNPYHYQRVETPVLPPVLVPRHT
clone 21 of the 1OZJ scaffold (P84022, form named): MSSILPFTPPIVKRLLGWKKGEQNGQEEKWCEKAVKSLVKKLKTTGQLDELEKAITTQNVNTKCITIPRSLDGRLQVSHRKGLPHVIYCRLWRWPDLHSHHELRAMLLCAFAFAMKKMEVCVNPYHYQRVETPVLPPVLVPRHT
clone 55 of the 1OZJ scaffold (P84022, form named): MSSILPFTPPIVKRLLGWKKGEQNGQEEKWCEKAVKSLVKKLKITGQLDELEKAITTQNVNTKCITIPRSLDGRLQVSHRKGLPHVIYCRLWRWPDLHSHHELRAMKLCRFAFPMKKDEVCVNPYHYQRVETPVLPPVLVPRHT
clone 54 of the 1OZJ scaffold (P84022, form named): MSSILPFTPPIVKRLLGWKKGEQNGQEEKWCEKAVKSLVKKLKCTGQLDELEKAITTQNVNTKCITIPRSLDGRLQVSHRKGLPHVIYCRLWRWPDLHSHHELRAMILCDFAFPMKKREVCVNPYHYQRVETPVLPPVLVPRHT
clone 53 of the 1OZJ scaffold (P84022, form named): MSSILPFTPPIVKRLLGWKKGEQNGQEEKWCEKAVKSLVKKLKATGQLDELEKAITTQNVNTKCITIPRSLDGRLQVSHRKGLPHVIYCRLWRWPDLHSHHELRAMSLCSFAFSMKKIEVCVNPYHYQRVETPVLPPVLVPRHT
clone 20 of the 1OZJ scaffold (P84022, form named): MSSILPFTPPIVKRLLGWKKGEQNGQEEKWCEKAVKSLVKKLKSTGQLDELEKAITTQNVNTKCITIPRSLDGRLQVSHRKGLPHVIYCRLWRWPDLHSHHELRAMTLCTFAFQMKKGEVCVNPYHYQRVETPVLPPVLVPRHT
clone 8 of the 1OZJ scaffold (P84022, form named): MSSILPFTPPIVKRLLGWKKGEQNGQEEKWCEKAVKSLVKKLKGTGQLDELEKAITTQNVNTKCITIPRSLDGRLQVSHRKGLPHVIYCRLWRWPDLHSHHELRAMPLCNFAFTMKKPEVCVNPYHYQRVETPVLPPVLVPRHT
clone 43 of the 1OZJ scaffold (P84022, form named): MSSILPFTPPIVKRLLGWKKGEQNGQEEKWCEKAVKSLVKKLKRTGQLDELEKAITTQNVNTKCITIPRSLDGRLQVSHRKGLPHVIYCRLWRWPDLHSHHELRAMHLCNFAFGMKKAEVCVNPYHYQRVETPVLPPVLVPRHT
clone 31 of the 1OZJ scaffold (P84022, form named): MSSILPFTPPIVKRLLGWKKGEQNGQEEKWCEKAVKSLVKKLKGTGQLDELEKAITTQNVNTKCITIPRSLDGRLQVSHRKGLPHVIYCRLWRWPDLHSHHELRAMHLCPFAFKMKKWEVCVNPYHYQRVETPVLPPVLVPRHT

binding, binds:
clone 24 of the 1OZJ scaffold (from UniProt P84022 1-144) (designed binder)
clone 35 of the 1OZJ scaffold (from UniProt P84022 1-144) (designed binder)
clone 55 of the 1OZJ scaffold (from UniProt P84022 1-144) (designed binder)
clone 54 of the 1OZJ scaffold (from UniProt P84022 1-144) (designed binder)
clone 53 of the 1OZJ scaffold (from UniProt P84022 1-144) (designed binder)
clone 34 of the 1OZJ scaffold (from UniProt P84022 1-144) (designed binder)
clone 21 of the 1OZJ scaffold (from UniProt P84022 1-144) (designed binder)
clone 8 of the 1OZJ scaffold (from UniProt P84022 1-144) (designed binder)
clone 18 of the 1OZJ scaffold (from UniProt P84022 1-144) (designed binder)
clone 43 of the 1OZJ scaffold (from UniProt P84022 1-144) (designed binder)
clone 31 of the 1OZJ scaffold (from UniProt P84022 1-144) (designed binder)
clone 20 of the 1OZJ scaffold (from UniProt P84022 1-144) (designed binder)
